In the supplement of paper PMC10849652:
The list shows a part of the results.

Protein sequences, listed by entry. Tags and fused reporters are not part of them. Lines headed by an entry give the natural chain unless they say otherwise; changes in a name come on top.
UniProt Q9NV66: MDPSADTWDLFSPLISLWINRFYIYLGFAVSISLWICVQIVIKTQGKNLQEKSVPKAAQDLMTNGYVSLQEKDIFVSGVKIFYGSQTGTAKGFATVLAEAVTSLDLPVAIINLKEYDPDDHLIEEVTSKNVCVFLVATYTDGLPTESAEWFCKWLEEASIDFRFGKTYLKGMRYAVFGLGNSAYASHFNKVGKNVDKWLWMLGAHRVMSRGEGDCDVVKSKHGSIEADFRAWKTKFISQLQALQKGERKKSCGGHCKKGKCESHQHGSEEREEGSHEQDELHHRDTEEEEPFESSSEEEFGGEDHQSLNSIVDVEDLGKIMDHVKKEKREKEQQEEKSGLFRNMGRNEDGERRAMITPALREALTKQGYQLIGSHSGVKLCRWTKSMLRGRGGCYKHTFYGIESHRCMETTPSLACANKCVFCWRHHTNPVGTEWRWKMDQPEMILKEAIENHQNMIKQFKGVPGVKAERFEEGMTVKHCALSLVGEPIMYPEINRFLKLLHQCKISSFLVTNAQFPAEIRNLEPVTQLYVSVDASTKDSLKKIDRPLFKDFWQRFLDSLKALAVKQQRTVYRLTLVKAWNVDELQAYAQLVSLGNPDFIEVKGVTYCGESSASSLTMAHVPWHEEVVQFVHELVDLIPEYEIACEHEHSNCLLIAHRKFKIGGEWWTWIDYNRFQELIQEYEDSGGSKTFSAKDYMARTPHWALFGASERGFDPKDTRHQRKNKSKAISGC
UniProt P61086: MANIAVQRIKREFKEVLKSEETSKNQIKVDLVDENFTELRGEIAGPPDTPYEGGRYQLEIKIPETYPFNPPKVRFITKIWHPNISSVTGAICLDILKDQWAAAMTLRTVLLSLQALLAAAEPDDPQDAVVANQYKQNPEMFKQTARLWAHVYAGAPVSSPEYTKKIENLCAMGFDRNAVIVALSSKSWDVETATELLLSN
UniProt Q9NUQ3: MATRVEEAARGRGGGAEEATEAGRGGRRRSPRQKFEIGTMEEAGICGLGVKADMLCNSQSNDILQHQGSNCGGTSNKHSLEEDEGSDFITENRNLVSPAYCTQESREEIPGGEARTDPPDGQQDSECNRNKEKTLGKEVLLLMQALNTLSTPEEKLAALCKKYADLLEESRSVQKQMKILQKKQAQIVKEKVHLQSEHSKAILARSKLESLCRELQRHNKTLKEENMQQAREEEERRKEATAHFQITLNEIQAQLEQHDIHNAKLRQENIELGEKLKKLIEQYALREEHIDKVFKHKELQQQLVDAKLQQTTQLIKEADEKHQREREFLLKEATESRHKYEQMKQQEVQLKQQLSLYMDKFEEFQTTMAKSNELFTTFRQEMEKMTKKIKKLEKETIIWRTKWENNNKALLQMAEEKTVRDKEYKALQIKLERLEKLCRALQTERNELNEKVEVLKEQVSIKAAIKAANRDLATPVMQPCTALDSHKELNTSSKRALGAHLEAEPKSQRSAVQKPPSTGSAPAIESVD
UniProt Q05086: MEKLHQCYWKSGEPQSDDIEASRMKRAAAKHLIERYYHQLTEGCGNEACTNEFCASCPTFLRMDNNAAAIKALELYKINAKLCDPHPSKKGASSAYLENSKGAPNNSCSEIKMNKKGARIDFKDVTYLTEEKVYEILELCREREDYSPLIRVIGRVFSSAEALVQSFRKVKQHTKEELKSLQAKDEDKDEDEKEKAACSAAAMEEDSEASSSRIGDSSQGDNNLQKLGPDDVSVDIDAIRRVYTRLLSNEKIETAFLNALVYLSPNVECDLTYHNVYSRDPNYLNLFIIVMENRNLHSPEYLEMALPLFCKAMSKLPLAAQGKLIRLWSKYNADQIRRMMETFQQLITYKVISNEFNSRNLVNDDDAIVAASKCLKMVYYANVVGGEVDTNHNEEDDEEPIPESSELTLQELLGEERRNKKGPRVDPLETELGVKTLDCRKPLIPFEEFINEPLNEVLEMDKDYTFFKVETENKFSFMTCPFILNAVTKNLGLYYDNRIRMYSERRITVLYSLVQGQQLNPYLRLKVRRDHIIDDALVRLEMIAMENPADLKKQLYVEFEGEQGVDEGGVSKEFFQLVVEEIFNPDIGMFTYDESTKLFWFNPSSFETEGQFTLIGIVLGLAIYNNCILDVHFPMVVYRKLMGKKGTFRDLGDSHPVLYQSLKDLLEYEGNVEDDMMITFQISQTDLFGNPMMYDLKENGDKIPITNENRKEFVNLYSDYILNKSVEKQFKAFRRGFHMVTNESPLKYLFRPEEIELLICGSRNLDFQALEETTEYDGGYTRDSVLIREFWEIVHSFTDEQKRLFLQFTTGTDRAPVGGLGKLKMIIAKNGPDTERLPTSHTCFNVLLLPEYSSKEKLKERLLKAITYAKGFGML
UniProt Q12792, whole entry, looked up: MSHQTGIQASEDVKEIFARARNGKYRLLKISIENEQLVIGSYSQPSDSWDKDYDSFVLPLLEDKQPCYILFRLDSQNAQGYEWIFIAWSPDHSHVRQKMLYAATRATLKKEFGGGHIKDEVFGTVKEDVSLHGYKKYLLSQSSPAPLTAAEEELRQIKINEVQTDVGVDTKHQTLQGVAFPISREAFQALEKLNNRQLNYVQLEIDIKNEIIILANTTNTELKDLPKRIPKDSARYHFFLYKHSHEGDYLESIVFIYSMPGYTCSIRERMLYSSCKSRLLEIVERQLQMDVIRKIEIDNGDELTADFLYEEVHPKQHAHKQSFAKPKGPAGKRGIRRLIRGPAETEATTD
UniProt Q15386: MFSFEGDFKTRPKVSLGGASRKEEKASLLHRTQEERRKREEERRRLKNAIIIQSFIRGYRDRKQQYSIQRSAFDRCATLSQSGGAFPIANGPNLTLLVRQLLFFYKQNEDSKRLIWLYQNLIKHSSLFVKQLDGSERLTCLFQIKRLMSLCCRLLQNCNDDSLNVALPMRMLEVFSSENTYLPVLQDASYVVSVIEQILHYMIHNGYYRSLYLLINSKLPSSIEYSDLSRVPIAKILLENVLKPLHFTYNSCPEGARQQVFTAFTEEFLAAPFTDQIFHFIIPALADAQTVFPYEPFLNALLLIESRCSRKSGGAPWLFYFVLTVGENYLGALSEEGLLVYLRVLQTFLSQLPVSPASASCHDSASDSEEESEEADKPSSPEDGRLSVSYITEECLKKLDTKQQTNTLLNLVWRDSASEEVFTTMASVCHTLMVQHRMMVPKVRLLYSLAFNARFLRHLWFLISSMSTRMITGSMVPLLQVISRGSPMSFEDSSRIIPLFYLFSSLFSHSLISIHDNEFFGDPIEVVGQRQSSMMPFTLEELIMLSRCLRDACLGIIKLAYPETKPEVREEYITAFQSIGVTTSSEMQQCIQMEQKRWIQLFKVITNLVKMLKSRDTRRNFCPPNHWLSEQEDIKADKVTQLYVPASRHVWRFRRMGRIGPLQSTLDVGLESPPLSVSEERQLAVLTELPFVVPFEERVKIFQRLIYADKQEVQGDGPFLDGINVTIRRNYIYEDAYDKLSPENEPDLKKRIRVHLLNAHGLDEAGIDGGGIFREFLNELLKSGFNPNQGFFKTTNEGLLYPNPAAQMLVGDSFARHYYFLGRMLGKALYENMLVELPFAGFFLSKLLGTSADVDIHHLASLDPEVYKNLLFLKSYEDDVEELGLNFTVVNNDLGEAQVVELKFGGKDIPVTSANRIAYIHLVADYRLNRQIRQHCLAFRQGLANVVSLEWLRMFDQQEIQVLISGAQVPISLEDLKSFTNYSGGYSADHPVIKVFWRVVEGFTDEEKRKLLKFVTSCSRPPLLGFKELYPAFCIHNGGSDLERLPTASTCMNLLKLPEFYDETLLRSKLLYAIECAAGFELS
UniProt Q9NZ09: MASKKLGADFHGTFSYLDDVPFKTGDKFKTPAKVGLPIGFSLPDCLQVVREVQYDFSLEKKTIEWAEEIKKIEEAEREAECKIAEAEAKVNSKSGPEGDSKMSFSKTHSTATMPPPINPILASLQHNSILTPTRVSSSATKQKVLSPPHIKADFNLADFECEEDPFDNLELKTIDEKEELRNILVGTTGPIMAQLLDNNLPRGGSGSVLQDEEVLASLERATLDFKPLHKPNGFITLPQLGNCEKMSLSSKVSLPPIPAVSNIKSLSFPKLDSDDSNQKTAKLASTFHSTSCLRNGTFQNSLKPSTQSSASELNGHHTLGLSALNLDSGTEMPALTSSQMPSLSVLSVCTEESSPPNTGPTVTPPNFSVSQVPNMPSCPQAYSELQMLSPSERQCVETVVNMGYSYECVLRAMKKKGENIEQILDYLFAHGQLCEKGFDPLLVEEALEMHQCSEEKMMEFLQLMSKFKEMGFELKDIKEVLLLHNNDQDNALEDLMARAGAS
UniProt Q9H6E5: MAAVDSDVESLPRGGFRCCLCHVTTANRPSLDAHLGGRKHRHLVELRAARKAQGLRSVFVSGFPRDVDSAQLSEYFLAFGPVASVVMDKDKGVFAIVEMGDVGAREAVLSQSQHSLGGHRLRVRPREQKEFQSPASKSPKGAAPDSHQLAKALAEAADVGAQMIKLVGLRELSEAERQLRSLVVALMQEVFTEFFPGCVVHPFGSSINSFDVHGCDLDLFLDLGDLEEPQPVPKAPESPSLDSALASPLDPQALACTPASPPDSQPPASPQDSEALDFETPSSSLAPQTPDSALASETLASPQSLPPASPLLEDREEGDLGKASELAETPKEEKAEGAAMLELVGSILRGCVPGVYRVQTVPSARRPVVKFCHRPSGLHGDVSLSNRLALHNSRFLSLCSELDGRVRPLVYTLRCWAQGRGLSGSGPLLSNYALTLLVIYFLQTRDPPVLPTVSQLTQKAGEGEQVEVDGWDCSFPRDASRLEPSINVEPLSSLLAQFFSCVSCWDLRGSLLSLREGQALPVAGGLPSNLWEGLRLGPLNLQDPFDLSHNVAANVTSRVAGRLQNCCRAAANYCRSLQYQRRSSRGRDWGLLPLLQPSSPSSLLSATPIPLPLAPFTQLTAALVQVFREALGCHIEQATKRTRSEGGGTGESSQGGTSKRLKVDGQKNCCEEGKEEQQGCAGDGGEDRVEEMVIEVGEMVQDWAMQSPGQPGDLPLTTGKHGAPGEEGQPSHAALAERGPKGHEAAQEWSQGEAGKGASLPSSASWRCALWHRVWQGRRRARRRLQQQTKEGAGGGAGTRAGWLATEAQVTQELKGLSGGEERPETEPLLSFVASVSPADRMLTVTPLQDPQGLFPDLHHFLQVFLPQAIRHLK
UniProt Q969T4: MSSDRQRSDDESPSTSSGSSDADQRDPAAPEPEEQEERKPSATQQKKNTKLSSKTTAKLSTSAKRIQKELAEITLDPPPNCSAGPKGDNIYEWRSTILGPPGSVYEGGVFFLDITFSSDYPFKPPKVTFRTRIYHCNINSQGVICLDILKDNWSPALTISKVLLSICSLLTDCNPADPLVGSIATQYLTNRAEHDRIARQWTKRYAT
UniProt P49459, whole entry, looked up: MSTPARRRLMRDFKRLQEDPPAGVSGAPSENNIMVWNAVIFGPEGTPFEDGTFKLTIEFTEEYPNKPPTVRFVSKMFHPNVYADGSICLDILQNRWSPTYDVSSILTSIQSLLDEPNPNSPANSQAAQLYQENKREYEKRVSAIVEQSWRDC
UniProt Q8TBC4: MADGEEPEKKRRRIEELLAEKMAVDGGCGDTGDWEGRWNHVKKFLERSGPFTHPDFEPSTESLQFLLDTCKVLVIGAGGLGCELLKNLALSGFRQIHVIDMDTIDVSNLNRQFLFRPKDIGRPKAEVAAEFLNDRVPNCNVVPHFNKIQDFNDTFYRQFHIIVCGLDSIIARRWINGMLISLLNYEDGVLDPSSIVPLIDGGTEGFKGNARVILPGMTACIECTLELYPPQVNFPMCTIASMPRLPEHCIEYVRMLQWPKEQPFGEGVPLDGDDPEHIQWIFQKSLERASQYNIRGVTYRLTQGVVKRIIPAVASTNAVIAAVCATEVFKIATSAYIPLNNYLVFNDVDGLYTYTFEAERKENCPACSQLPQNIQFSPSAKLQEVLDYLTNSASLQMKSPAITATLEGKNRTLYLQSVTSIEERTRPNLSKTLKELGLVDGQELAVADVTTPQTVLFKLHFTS
UniProt Q9HA47: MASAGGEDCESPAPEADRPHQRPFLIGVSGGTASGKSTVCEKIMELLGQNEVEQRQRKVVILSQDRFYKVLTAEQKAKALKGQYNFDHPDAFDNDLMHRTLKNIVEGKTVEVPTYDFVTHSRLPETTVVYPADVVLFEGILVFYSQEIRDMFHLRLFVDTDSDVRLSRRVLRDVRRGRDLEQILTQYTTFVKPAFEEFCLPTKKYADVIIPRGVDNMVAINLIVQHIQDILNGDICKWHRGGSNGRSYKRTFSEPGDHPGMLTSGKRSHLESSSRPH

Key:
Experiment in all cases: log2 fold change, soluble protein after heating vs DMSO (PISA); higher = thermal stabilisation; K562 lysate, 10 uM; active = over 0.2 and 3.5 SD of the protein, either way, in both replicates (recomputed)
erlotinib = compound: C#Cc1cccc(Nc2ncnc3cc(OCCOC)c(OCCOC)cc23)c1 [erlotinib]
Method in brief: (§1)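 To prepare the extract, K562 pellets were dounce-homogenised in PBS pH 7.4 with 1 mM MgCl2, giving crude material at 1 mg/mL protein. This was treated with 10 μM compound for 30 min, then heated in aliquots for 3 min over 48°C-58°C before pooling and addition of NP-40 to 0.5% at 4°C. Centrifugation at 21,000xg for 90 min left soluble protein in the supernatant, which TMTpro 16plex LC-MS/MS quantified with equalised channel sums. Results are log-two fold changes in thermal stability compared with solvent controls, from duplicates.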

[1] = compound: C/C(=N\NC(=O)C1=CC(=CC=C1)S(=O)(=O)N2CCOCC2)/C3=C(C=CC(=C3)Cl)O
Method in brief: as §1

[2] = compound: C1=CC(=CC=C1C2=NC3=C(N2)C=C(C=C3)C(=O)N)OC4=CC=C(C=C4)Cl
Method in brief: as §1

[3] = compound: C1=CC2=C(C=CC(=C2)/C=C\3/C(=O)NC(=NCC4=CC=CS4)S3)N=C1
Method in brief: as §1

[4] = compound: C1=CC2=NC=CN=C2C=C1/C=C/3\C(=O)NC(=O)S3
Method in brief: as §1

[5] = compound: C1=CC=C(C=C1)C2=NC(=C(N2)C3=CC=NC=C3)C4=CC(=C(C=C4)Cl)O
Method in brief: as §1

[6] = compound: C1=CC=C2C(=C1)C3=NNC4=CC=CC(=C43)C2=O
Method in brief: as §1

[7] = compound: C1CCN(C1)C(=O)NC2=CC=CC(=C2)NC3=NC=C(C(=N3)NCCC4=CN=CN4)Br
Method in brief: as §1

[8] = compound: C1CN(CCC1(CC2=CC=C(C=C2)Cl)N)C3=NC=NC4=C3C=CN4
Method in brief: as §1

IRAK-1-4 Inhibitor I = compound: C1COCCN1CCN2C3=CC=CC=C3N=C2NC(=O)C4=CC(=CC=C4)[N+](=O)[O-] [IRAK-1-4 Inhibitor I]
Method in brief: as §1

ibrutinib = compound: C=CC(=O)N1CCC[C@@H](n2nc(-c3ccc(Oc4ccccc4)cc3)c3c(N)ncnc32)C1 [ibrutinib]
Method in brief: as §1

[9] = compound: CC(=O)c1cnc2ccc(-c3cc(Cl)c(O)c(Cl)c3)nc2c1N[C@H]1CC[C@H](CN(C)C)CC1
Method in brief: as §1

ralimetinib = compound: CC(C)(C)Cn1c(N)nc2ccc(-c3[nH]c(C(C)(C)C)nc3-c3ccc(F)cc3)nc21 [ralimetinib]
Method in brief: as §1

[10] = compound: CC(C)(O)CC(=O)NCCn1ccc2ncnc(Nc3ccc(Oc4cccc(C(F)(F)F)c4)c(Cl)c3)c21
Method in brief: as §1

[11] = compound: CC(C)C1=C2N=C(C=C(N2N=C1)NCC3=CC=CC=C3)NCCCCCCN
Method in brief: as §1

[12] = compound: CC1=C(C(CC(=O)N1)C2=CC=C(C=C2)C(F)(F)F)C(=O)NC3=C(C=C4C(=C3)C=NN4)F
Method in brief: as §1

[13] = compound: CC1=C(C2=C(C=C1)C(=O)C3=CC=CC=C3N2CCCN)C
Method in brief: as §1

[14] = compound: CC1=C(C=C(C=C1)NC(=O)C2=CC(=CC=C2)C(C)(C)C#N)NC3=CC4=C(C=C3)N=CN(C4=O)C
Method in brief: as §1

[15] = compound: CC1=C(C=C(C=C1)NC(=O)C2=CC(=CC=C2)N(C)C)NC(=O)C3=CC=C(C=C3)O
Method in brief: as §1

[16] = compound: CC1=CC=C(C=C1)SC2=C3C=C(SC3=CN=C2)C(=O)N
Method in brief: as §1

Measured: log2 fold change

TUBA3C (UniProt P0DPH7)
inactive: erlotinib 0.03 | [1] -0.605 | [2] 0.039 | [3] -0.029 | [4] 0.023 | [5] -0.023 | [6] -0.01 | [7] -0.011 | [8] 0.036 | IRAK-1-4 Inhibitor I 0.037 | ibrutinib -0.009 | [9] -0.007 | ralimetinib 0.041 | [10] -0.045 | [11] -0.047 | [12] 0.002 | [13] 0.029 | [14] -0.021 | [15] 0.038 | [16] 0.001

UBP1 (UniProt Q9NZI7)
inactive: erlotinib 0.018 | [1] -0.109 | [2] -0.095 | [3] 0.048 | [4] 0.016 | [5] 0.01 | [6] 0.032 | [7] -0.034 | [8] -0.017 | IRAK-1-4 Inhibitor I 0.029 | ibrutinib -0.006 | [9] 0.056 | ralimetinib 0.024 | [10] -0.004 | [11] 0.048 | [12] -0.028 | [13] 0.047 | [14] 0.03 | [15] -0.037 | [16] 0.004

TYW1 (UniProt Q9NV66)
inactive: erlotinib 0.028 | [1] -0.013 | [2] 0.005 | [3] -0.149 | [4] -0.077 | [5] -0.019 | [6] -0.236 | [7] 0.01 | [8] 0.098 | IRAK-1-4 Inhibitor I 0.152 | ibrutinib 0.177 | [9] 0.069 | ralimetinib 0.045 | [10] 0.12 | [11] -0.025 | [12] -0.001 | [13] -0.087 | [14] -0.021 | [15] -0.121 | [16] -0.098

UBE2K (UniProt P61086)
inactive: erlotinib 0.014 | [1] 0.021 | [2] 0.033 | [3] 0.002 | [4] 0.009 | [5] 0.004 | [6] 0.023 | [7] 0.006 | [8] 0.036 | IRAK-1-4 Inhibitor I 0.007 | ibrutinib 0.017 | [9] -0.007 | ralimetinib -0.007 | [10] -0.054 | [11] -0.019 | [12] -0.021 | [13] 0 | [14] 0.043 | [15] -0.008 | [16] -0.006

TXLNG (UniProt Q9NUQ3)
inactive: erlotinib -0.029 | [1] -0.076 | [2] 0.018 | [3] 0.004 | [4] -0.029 | [5] -0.001 | [6] 0.03 | [7] 0.019 | [8] -0.001 | IRAK-1-4 Inhibitor I 0 | ibrutinib 0.011 | [9] 0 | ralimetinib 0.005 | [10] 0.008 | [11] -0.015 | [12] -0.006 | [13] -0.005 | [14] -0.014 | [15] 0.01 | [16] -0.003

UBE3A (UniProt Q05086)
inactive: erlotinib 0.024 | [1] -0.025 | [2] 0.008 | [3] -0.002 | [4] -0.016 | [5] -0.01 | [6] -0.006 | [7] -0.015 | [8] 0.013 | IRAK-1-4 Inhibitor I 0.029 | ibrutinib 0.017 | [9] -0.008 | ralimetinib 0.01 | [10] -0.031 | [11] -0.002 | [12] -0.014 | [13] -0.011 | [14] 0.011 | [15] 0.008 | [16] 0

TWF1 (UniProt Q12792)
inactive: erlotinib -0.047 | [1] 0.037 | [2] -0.009 | [3] -0.044 | [4] 0 | [5] -0.047 | [6] -0.008 | [7] 0.023 | [8] 0.002 | IRAK-1-4 Inhibitor I 0.059 | ibrutinib 0.018 | [9] 0.003 | ralimetinib 0.046 | [10] -0.061 | [11] -0.029 | [12] 0.033 | [13] -0.009 | [14] -0.023 | [15] -0.036 | [16] 0.004

UBE3C (UniProt Q15386)
inactive: erlotinib 0.035 | [1] -0.061 | [2] -0.067 | [3] 0.011 | [4] -0.036 | [5] -0.01 | [6] -0.022 | [7] 0.027 | [8] 0.049 | IRAK-1-4 Inhibitor I 0 | ibrutinib -0.011 | [9] 0.024 | ralimetinib 0.012 | [10] -0.028 | [11] -0.011 | [12] 0.005 | [13] 0.04 | [14] -0.021 | [15] 0.021 | [16] 0.01

UBAP1 (UniProt Q9NZ09)
inactive: erlotinib -0.044 | [1] -0.04 | [2] 0.054 | [3] -0.003 | [4] 0.024 | [5] 0.088 | [6] 0.044 | [7] 0.046 | [8] 0.004 | IRAK-1-4 Inhibitor I 0.07 | ibrutinib 0.019 | [9] 0.052 | ralimetinib -0.003 | [10] -0.048 | [11] 0.036 | [12] 0.053 | [13] 0.014 | [14] -0.087 | [15] -0.006 | [16] -0.039

TUT1 (UniProt Q9H6E5)
inactive: erlotinib 0.059 | [1] -0.018 | [2] 0.028 | [3] -0.044 | [4] -0.01 | [5] -0.008 | [6] -0.058 | [7] 0.049 | [8] -0.018 | IRAK-1-4 Inhibitor I 0.012 | ibrutinib 0.017 | [9] 0.002 | ralimetinib 0.006 | [10] -0.029 | [11] -0.001 | [12] 0.036 | [13] 0.028 | [14] -0.057 | [15] 0.007 | [16] 0.006

TTN isoform 12 (UniProt Q8WZ42)
inactive: erlotinib 0.01 | [1] -0.081 | [2] 0.021 | [3] -0.156 | [4] -0.013 | [5] 0.041 | [6] -0.06 | [7] -0.086 | [8] 0.043 | IRAK-1-4 Inhibitor I 0.016 | ibrutinib 0.019 | [9] -0.05 | ralimetinib -0.017 | [10] -0.059 | [11] 0.014 | [12] -0.009 | [13] -0.05 | [14] 0.123 | [15] 0.013 | [16] -0.047

TUBGCP2 isoform 4 (UniProt Q9BSJ2)
inactive: erlotinib 0.036 | [1] -0.048 | [2] 0.012 | [3] 0.025 | [4] 0.014 | [5] -0.005 | [6] -0.029 | [7] -0.014 | [8] 0.004 | IRAK-1-4 Inhibitor I -0.041 | ibrutinib -0.001 | [9] 0.042 | ralimetinib -0.007 | [10] -0.016 | [11] -0.006 | [12] 0.011 | [13] -0.023 | [14] 0.035 | [15] 0.048 | [16] -0.017

UBE2E3 (UniProt Q969T4)
inactive: erlotinib -0.027 | [1] -0.024 | [2] 0.024 | [3] 0.011 | [4] -0.04 | [5] -0.012 | [6] -0.021 | [7] -0.051 | [8] 0.02 | IRAK-1-4 Inhibitor I 0.029 | ibrutinib -0.009 | [9] -0.021 | ralimetinib -0.004 | [10] -0.01 | [11] 0.02 | [12] -0.026 | [13] -0.015 | [14] 0.034 | [15] 0.015 | [16] 0.042

Copied from the results shown (2 entries):
UBP1 (UniProt Q9NZI7)
inactive: erlotinib 0.018 | [1] -0.109 | [2] -0.095 | [3] 0.048 | [4] 0.016 | [5] 0.01 | [6] 0.032 | [7] -0.034 | [8] -0.017 | IRAK-1-4 Inhibitor I 0.029 | ibrutinib -0.006 | [9] 0.056 | ralimetinib 0.024 | [10] -0.004 | [11] 0.048 | [12] -0.028 | [13] 0.047 | [14] 0.03 | [15] -0.037 | [16] 0.004

TYW1 (UniProt Q9NV66)
inactive: erlotinib 0.028 | [1] -0.013 | [2] 0.005 | [3] -0.149 | [4] -0.077 | [5] -0.019 | [6] -0.236 | [7] 0.01 | [8] 0.098 | IRAK-1-4 Inhibitor I 0.152 | ibrutinib 0.177 | [9] 0.069 | ralimetinib 0.045 | [10] 0.12 | [11] -0.025 | [12] -0.001 | [13] -0.087 | [14] -0.021 | [15] -0.121 | [16] -0.098

Remaining list, next part.

UBE2A (UniProt P49459)
inactive: erlotinib 0.023 | [1] 0 | [2] 0 | [3] 0.018 | [4] 0.033 | [5] 0 | [6] 0.004 | [7] 0.011 | [8] -0.009 | IRAK-1-4 Inhibitor I -0.012 | ibrutinib -0.006 | [9] 0.007 | ralimetinib -0.015 | [10] 0.009 | [11] -0.026 | [12] -0.005 | [13] 0.023 | [14] 0.016 | [15] 0.024 | [16] -0.023

UBA3 (UniProt Q8TBC4)
inactive: erlotinib 0 | [1] 0.033 | [2] 0 | [3] -0.023 | [4] 0.003 | [5] 0.016 | [6] -0.035 | [7] -0.008 | [8] 0.021 | IRAK-1-4 Inhibitor I 0.014 | ibrutinib 0.006 | [9] 0.015 | ralimetinib 0.016 | [10] -0.009 | [11] -0.013 | [12] -0.004 | [13] -0.018 | [14] -0.021 | [15] 0.006 | [16] 0.002

UCK1 isoform 4 (UniProt Q9HA47)
inactive: erlotinib 0.021 | [1] -0.062 | [2] 0.06 | [3] 0.024 | [4] 0.048 | [5] 0.046 | [6] 0.027 | [7] 0.019 | [8] -0.003 | IRAK-1-4 Inhibitor I 0 | ibrutinib -0.091 | [9] -0.055 | ralimetinib -0.04 | [10] 0.018 | [11] -0.021 | [12] -0.053 | [13] -0.014 | [14] 0.01 | [15] 0.046 | [16] 0.013
